Data as given in paper doi:10.1101/163998.
No constants are given. Whether binding was seen depends on the method and setting. Binding seen in cells or lysates may run through a third protein. Some binding calls cover weakened binding; strength is not graded here.

Amino acid sequences for entries named in this document (tags omitted). A change or cut given only in a name is not applied to a line headed by its entry.
UniProt Q04637, whole entry: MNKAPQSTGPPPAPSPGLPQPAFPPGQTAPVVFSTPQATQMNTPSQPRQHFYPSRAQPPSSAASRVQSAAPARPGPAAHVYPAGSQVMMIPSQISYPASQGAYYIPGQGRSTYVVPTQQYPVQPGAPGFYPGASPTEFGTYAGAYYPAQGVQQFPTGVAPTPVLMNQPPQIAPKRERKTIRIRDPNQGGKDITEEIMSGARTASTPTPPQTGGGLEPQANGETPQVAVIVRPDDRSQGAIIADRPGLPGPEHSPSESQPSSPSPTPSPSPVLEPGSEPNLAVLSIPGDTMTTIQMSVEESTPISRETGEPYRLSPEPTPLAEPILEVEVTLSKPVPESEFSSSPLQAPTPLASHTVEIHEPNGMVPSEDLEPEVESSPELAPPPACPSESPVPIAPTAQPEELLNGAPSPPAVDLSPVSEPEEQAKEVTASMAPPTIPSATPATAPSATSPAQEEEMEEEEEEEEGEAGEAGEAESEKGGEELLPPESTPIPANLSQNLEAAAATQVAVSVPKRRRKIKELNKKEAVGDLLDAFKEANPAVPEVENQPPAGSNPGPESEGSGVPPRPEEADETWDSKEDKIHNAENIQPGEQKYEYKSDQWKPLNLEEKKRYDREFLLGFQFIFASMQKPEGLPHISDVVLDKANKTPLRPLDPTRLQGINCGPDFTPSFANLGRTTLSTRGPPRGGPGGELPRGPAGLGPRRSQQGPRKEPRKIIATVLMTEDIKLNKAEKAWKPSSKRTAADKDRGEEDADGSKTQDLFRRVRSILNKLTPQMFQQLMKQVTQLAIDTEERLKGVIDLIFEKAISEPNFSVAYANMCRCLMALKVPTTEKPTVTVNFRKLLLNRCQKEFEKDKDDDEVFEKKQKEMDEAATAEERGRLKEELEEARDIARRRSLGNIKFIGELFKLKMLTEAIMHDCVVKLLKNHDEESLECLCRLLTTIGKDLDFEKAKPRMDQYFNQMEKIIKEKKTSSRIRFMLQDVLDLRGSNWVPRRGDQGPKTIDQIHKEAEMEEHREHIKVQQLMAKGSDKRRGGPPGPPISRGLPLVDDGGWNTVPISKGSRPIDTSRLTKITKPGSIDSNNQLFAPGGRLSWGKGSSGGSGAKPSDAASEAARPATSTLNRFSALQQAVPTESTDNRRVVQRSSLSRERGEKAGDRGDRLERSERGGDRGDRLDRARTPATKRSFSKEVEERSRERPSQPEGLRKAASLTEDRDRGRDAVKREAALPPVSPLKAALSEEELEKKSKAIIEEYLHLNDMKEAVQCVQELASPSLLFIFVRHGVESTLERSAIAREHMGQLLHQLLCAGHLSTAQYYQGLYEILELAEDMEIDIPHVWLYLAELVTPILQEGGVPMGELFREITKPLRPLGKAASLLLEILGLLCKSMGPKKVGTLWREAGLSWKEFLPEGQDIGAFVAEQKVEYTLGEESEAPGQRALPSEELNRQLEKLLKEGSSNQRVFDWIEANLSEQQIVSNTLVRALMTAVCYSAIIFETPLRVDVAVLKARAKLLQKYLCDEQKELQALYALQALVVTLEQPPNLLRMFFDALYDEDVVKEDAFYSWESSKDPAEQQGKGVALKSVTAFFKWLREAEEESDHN
UniProt P60842, whole entry: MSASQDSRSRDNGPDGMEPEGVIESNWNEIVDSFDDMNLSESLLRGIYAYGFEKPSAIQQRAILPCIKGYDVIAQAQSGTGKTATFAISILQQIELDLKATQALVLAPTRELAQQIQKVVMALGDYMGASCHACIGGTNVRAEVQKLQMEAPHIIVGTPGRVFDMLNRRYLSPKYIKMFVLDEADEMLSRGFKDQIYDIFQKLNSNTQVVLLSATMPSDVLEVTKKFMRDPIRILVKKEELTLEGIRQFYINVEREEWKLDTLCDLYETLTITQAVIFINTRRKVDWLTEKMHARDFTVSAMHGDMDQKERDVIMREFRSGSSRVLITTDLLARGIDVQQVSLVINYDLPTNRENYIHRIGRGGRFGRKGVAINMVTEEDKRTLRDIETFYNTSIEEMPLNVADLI
UniProt Q13568, whole entry: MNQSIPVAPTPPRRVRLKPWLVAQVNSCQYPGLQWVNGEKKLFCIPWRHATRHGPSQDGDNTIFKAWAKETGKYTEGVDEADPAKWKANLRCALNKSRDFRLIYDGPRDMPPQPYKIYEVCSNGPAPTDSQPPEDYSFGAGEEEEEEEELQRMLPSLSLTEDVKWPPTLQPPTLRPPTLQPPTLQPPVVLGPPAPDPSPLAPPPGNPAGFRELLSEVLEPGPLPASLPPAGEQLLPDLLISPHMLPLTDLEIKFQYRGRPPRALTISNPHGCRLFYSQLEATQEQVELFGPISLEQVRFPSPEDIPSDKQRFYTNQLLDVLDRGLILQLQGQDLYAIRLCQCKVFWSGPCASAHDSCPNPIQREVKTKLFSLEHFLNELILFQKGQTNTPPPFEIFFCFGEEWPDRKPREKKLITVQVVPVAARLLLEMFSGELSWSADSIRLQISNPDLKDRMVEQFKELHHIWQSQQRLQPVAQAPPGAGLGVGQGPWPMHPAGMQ

How the values were obtained:
[1] = biological target: HA-tagged eIF4G (full-length) (UniProt Q04637); assay: co-IP
[2] = biological target: eIF4A, endogenous, human cell lines (human (endogenous in THP1, BJAB and HEK293T)) (UniProt P60842); assay: co-IP

binding [1]	binding [2]	Substance
binds	–	FLAG-tagged IRF5 variant V1 (from UniProt Q13568 1-498)
–	binds	Interferon Regulatory Factor 5 (IRF5), endogenous, human cell lines (from UniProt Q13568 1-498)
